Holding throughout (test): affinity purification with mass spectrometry; FLAG-tagged human bait stably expressed in MEL cells induced 72 h with 1.5% DMSO; isolated mitochondria lysed in 50 mM Tris-HCl pH 7.5, 1 mM EDTA, 150 mM NaCl, 1% Nonidet P-40; anti-FLAG agarose overnight at 4°C, washes with 0.1% Nonidet P-40, elution with FLAG peptide, MudPIT MS; empty vector as control
For experiment [1], the target named is T1, FLAG-CPOX (human coproporphyrinogen oxidase, carboxy terminal FLAG) (human) (UniProt P36551).
T1 sequence: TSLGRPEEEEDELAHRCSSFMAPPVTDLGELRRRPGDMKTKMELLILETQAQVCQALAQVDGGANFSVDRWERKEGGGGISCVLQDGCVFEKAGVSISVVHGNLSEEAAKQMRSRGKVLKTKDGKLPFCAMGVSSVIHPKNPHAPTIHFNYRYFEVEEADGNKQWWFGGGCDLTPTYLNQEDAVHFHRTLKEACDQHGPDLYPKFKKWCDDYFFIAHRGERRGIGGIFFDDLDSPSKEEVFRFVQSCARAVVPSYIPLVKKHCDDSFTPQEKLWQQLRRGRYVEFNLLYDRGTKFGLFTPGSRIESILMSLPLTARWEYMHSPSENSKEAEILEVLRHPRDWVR

Experiment [2] addresses T2, FLAG-FECH M76H variant (human ferrochelatase) (human) (UniProt P22830).
T2 sequence: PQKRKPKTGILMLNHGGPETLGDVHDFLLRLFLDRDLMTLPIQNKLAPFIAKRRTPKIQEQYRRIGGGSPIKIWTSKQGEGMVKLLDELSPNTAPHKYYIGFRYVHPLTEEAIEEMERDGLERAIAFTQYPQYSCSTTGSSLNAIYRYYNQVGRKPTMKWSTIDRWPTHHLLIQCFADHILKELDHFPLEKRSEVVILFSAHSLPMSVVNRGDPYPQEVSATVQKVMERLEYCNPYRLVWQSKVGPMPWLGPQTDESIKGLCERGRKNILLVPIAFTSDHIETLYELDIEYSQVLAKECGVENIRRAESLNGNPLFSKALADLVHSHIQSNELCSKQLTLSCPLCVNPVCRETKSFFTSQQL

Experiment [3] addresses T3, FLAG-FECH E343K variant (human ferrochelatase) (human) (UniProt P22830).
T3 sequence: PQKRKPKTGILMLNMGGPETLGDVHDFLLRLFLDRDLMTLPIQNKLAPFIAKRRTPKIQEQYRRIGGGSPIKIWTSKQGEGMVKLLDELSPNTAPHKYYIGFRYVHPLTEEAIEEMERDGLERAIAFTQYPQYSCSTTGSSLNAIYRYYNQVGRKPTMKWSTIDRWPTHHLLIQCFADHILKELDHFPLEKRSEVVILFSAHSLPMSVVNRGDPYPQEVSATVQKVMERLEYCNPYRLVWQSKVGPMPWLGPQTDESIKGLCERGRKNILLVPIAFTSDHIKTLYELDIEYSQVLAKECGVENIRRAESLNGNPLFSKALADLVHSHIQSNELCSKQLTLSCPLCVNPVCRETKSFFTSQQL

The target of experiment [4] is T4, FLAG-FECH (human ferrochelatase, wild type) (human) (UniProt P22830).
T4 sequence: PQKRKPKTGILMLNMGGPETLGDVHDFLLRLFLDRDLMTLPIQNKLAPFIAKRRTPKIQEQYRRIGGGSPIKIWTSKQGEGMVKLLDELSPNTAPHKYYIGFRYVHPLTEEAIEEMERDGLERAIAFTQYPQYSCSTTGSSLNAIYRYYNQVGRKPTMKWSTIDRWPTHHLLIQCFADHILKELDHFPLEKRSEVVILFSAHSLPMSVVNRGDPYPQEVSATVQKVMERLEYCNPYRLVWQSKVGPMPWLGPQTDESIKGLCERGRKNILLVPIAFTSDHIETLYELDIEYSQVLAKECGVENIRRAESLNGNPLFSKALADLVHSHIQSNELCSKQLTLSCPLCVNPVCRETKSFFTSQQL

Experiment [5] deals with T5, FLAG-PPOX (human protoporphyrinogen oxidase, carboxy terminal FLAG) (human) (UniProt P50336).
T5 sequence: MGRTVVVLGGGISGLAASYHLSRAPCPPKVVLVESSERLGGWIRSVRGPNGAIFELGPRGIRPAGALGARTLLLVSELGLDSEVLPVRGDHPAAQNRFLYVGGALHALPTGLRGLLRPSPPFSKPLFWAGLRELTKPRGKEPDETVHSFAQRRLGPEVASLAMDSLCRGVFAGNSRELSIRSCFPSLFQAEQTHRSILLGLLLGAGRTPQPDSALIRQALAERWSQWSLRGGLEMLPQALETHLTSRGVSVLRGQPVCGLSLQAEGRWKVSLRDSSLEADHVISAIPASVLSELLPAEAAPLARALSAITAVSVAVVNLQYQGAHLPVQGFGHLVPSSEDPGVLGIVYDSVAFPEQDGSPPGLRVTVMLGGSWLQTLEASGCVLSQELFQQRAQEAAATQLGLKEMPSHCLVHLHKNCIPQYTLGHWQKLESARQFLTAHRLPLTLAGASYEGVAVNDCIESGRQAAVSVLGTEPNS

No constants are given. Whether binding was seen depends on the method and setting. Binding seen in cells or lysates may run through a third protein. Here binding means that the protein was enriched with, or labelled near, the bait; the list need not be complete. For part of these data: A no says only that the protein was not detected with the bait. Tags and fused reporters may be left off the sequences shown.

B1: mouse abcb10 (protein, UniProt Q9JI39 83-715)
chain: AGPRAAHPLFARLQGAAATGVRDLGNDSQRRPAATGRSEVWKLLGLVRPERGRLSAAVGFLAVSSVITMSAPFFLGRIIDVIYTNPSEGYGDSLTRLCAVLTCVFLCGAAANGIRVYLMQSSGQSIVNRLRTSLFSSILRQEVAFFDKTRTGELINRLSSDTALLGRSVTENLSDGLRAGAQASVGVGMMFFVSPSLATFVLSVVPPISVLAVIYGRYLRKLSKATQDSLAEATQLAEERIGNIRTIRAFGKEMTEVEKYTGRVDQLLQLAQKEALARAGFFGAAGLSGNLIVLSVLYKGGLLMGSAHMTVGELSSFLMYAFWVGLSIGGLSSFYSELMKGLGAGGRLWELLERQPRLPFNEGMVLDEKTFQGALEFRNVHFTYPARPEVSVFQDFSLSIPSGSVTALVGPSGSGKSTVVSLLLRLYDPNSGTVSLDGHDIRQLNPVWLRSKIGTVSQEPVLFSCSVAENIAYGADNLSSVTAQQVERAAEVANAAEFIRSFPQGFDTVVGEKGILLSGGQKQRIAIARALLKNPKILLLDEATSALDAENEHLVQEALDRLMEGRTVLIIAHRLSTIKNANFVAVLDHGKICEHGTHEELLLKPNGLYRKLMNKQSFLSYNGAEQFLEPARA
For B1, the binding result in experiment [1] is reported as “no binding”; in experiment [2], “binds”; in experiment [3] it was “binds”; in experiment [4], “binds”; in experiment [5], “binds”.

B2: mouse succinyl-CoA synthetase beta subunit (sucla2) (enzyme, UniProt Q9Z2I9 54-463)
chain: SLHEYLSMELLQEAGVSVPKGFVAKSSDEAYAIAKKLGSKDVVIKAQVLAGGRGKGTFTSGLKGGVKIVFSPEEAKAVSSQMIGQKLITKQTGEKGRICNQVLVCERKYPRREYYFAITMERSFQGPVLIGSAQGGVNIEDVAAENPEAIVKEPIDIVEGIKKEQAVTLAQKMGFPSNIVDSAAENMIKLYNLFLKYDATMVEINPMVEDSDGKVLCMDAKINFDSNSAYRQKKIFDLQDWSQEDERDKEAANADINYIGLDGSIGCLVNGAGLAMATMDIIKLHGGTPANFLDVGGGATVQQVTEAFKLITSDKKVQAILVNIFGGIMRCDVIAQGIVMAVKDLEIRIPVVVRLQGTRVDDAKALIADSGLKILACDDLDEAAKMVVKLSEIVTLAKEAHVDVKFQLPI
B2: the binding result is listed as “no binding” in experiment [1]; “binds” in experiment [2]; “binds” in experiment [3]; “binds” in experiment [4]; “binds” in experiment [5].

B3: mouse coproporphyrinogen oxidase (enzyme, UniProt P36552 99-443)
chain: SPSPGRREEDGDELARRCSTFMSSPVTELRELRRRPEDMKTKMELMIMETQAQVCRALAQVDGVADFTVDRWERKEGGGGITCVLQDGRVFEKAGVSISVVHGNLSEEAANQMRGRGKTLKTKDSKLPFTAMGVSSVIHPKNPYAPTMHFNYRYFEVEEADGNTHWWFGGGCDLTPTYLNQEDAVHFHRTLKEACDQHGPDIYPKFKKWCDDYFFIVHRGERRGIGGIFFDDLDSPSKEEAFRFVKTCAEAVVPSYVPIVKKHCDDSYTPRDKLWQQLRRGRYVEFNLLYDRGTKFGLFTPGSRIESILMSLPLTARWEYMHSPPENSKEAEILEVLRHPKDWVH
Consider B3, for which the binding entry is given as “binds” in experiment [1], “no binding” in experiment [2], “no binding” in experiment [3] and “no binding” in experiment [4].

B4: mouse 5-aminolevulinate synthase 2 (erythroid) (enzyme, UniProt P08680 50-587)
chain: QIHLKATKAGGDSPSWAKSHCPFMLSELQDRKSKIVQRAAPEVQEDVKTFKTDLLSTMDSTTRSHSFPSFQEPEQTEGAVPHLIQNNMTGSQAFGYDQFFRDKIMEKKQDHTYRVFKTVNRWANAYPFAQHFSEASMASKDVSVWCSNDYLGISRHPRVLQAIEETLKNHGAGAGGTRNISGTSKFHVELEQELAELHQKDSALLFSSCFVANDSTLFTLAKLLPGCEIYSDAGNHASMIQGIRNSGAAKFVFRHNDPGHLKKLLEKSDPKTPKIVAFETVHSMDGAICPLEELCDVAHQYGALTFVDEVHAVGLYGARGAGIGERDGIMHKLDIISGTLGKAFGCVGGYIASTRDLVDMVRSYAAGFIFTTSLPPMVLSGALESVRLLKGEEGQALRRAHQRNVKHMRQLLMDRGFPVIPCPSHIIPIRVGNAALNSKICDLLLSKHSIYVQAINYPTVPRGEELLRLAPSPHHSPQMMENFVEKLLLAWTEVGLPLQDVSVAACNFCHRPVHFELMSEWERSYFGNMGPQYVTTYA
As for B4, the binding result is on record as “no binding” in experiment [1]; “binds” in experiment [2]; “binds” in experiment [3]; “binds” in experiment [4]; “binds” in experiment [5].

B5: mouse ferrochelatase (enzyme, UniProt P22315 54-422)
chain: TTKPQAQPERRKPKTGILMLNMGGPETLGEVQDFLQRLFLDRDLMTLPIQNKLAPFIAKRRTPKIQEQYRRIGGGSPIKMWTSKQGEGMVKLLDELSPATAPHKYYIGFRYVHPLTEEAIEEMERDGLERAIAFTQYPQYSCSTTGSSLNAIYRYYNEVGQKPTMKWSTIDRWPTHPLLIQCFADHILKELNHFPEEKRSEVVILFSAHSLPMSVVNRGDPYPQEVGATVHKVMEKLGYPNPYRLVWQSKVGPVPWLGPQTDEAIKGLCERGRKNILLVPIAFTSDHIETLYELDIEYSQVLAQKCGAENIRRAESLNGNPLFSKALADLVHSHIQSNKLCSTQLSLNCPLCVNPVCRKTKSFFTSQQL
B5: the binding result in experiment [1] is on record as “no binding”; in experiment [2], “binds”; in experiment [3] it was “binds”; in experiment [4], “binds”; in experiment [5], “binds”.

Values taken from article PMC4545792.
